This is one part of the list.
Columns and labels:
Assay in all cases: log2 fold change, soluble protein after heating vs DMSO (PISA); higher = thermal stabilisation; K562 lysate, 10 uM; active = over 0.2 and 3.5 SD of the protein, either way, in both replicates (recomputed)
vemurafenib = compound: CCCS(=O)(=O)Nc1ccc(F)c(C(=O)c2c[nH]c3ncc(-c4ccc(Cl)cc4)cc23)c1F [vemurafenib]
In short: (§1)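 Following dounce homogenisation of K562 pellets in PBS pH 7.4 with 1 mM MgCl2, crude extract at 1 mg/mL protein was incubated for 30 min with 10 μM compound. Aliquots were then heated for 3 min over 48°C-58°C and pooled, NP-40 was added to 0.5% at 4°C, and soluble protein was recovered as the supernatant at 21,000xg for 90 min. Channel-sum-equalised TMTpro 16plex LC-MS/MS quantified this protein. Each value, from duplicates, is a log-two fold change in thermal stability relative to solvent controls.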

Protein sequences, listed by entry. Tags and fused reporters are not part of them. Lines headed by an entry give the natural chain unless they say otherwise; changes in a name come on top.
UniProt Q96AD5: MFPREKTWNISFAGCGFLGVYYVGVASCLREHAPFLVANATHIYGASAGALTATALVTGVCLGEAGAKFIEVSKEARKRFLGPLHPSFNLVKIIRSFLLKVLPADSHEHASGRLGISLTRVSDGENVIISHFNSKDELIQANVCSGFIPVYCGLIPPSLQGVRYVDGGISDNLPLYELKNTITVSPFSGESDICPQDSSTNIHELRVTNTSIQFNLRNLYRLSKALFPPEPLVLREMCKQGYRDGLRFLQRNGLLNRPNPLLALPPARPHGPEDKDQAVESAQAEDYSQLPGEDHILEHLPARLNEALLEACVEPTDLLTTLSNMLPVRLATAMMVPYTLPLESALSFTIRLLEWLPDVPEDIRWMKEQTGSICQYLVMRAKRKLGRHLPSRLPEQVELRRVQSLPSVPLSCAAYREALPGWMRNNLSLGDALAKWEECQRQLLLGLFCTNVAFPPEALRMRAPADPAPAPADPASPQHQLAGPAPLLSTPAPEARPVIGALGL
UniProt P56282: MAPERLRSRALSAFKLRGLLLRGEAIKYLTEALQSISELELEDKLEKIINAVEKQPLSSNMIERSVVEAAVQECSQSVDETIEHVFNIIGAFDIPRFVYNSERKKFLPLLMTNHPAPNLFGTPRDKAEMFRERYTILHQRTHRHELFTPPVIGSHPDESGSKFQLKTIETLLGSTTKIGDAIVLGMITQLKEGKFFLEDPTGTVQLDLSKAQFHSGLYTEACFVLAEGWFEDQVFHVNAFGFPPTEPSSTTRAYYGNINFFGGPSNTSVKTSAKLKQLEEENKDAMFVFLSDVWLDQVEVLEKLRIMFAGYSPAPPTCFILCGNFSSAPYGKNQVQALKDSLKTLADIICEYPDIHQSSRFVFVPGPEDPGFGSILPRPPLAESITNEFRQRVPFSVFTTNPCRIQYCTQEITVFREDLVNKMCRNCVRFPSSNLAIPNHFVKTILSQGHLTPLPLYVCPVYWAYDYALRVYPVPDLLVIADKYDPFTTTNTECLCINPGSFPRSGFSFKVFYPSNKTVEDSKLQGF
UniProt Q9NRX1: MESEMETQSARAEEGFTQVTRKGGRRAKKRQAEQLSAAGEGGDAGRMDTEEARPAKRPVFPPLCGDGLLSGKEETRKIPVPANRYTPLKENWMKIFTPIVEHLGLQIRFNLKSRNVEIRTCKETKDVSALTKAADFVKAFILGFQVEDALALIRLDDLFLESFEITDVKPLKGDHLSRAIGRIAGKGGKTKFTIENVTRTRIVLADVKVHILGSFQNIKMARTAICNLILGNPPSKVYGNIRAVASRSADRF
UniProt O00411: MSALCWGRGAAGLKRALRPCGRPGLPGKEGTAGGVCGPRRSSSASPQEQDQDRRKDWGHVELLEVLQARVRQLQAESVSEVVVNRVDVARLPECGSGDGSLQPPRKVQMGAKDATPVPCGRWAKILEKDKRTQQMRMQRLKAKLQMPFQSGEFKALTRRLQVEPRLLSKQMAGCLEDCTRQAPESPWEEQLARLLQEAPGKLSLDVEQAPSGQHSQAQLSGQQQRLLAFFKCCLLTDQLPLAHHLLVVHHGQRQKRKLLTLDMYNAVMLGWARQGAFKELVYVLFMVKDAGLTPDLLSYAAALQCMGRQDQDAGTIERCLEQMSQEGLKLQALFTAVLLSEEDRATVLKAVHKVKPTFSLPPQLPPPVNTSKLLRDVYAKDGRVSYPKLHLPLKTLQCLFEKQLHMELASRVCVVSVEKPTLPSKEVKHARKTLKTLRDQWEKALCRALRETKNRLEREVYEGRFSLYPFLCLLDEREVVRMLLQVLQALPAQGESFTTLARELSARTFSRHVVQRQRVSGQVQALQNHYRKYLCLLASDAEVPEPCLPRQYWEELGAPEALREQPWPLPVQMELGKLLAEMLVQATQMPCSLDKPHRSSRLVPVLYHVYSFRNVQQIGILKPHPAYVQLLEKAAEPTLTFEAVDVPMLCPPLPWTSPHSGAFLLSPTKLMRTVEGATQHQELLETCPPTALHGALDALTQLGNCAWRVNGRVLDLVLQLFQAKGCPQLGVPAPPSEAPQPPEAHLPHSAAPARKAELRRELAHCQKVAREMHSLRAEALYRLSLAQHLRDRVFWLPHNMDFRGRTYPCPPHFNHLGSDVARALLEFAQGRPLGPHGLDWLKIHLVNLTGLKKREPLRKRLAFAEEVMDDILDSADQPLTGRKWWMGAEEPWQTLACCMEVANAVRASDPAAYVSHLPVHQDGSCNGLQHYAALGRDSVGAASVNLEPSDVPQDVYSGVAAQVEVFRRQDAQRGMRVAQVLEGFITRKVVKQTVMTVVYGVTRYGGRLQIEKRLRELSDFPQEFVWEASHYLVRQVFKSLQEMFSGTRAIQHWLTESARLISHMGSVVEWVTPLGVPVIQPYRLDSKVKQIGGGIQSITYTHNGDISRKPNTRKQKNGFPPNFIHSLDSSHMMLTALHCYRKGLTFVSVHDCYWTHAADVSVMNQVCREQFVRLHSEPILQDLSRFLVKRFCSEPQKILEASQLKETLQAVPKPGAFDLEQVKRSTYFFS
UniProt Q9Y535: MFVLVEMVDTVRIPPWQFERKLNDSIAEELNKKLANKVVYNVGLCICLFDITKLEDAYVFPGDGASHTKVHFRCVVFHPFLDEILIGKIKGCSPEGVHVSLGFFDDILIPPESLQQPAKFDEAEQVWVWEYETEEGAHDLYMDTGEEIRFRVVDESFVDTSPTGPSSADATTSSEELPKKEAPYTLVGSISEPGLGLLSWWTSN
UniProt Q9Y2S7: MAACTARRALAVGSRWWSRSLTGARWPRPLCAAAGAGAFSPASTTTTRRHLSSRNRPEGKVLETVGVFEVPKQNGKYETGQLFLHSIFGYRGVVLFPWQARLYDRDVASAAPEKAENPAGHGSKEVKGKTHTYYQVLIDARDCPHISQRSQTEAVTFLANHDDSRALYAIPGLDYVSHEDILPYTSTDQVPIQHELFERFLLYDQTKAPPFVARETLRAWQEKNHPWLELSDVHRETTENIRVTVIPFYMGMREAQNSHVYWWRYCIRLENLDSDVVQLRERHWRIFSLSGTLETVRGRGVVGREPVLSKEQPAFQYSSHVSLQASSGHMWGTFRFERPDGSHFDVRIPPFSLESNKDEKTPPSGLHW
UniProt Q9Y244: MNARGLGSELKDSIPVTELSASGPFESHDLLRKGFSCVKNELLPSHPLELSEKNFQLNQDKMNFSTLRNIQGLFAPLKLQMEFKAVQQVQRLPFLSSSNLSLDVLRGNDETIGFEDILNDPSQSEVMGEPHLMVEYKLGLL
UniProt Q8N490: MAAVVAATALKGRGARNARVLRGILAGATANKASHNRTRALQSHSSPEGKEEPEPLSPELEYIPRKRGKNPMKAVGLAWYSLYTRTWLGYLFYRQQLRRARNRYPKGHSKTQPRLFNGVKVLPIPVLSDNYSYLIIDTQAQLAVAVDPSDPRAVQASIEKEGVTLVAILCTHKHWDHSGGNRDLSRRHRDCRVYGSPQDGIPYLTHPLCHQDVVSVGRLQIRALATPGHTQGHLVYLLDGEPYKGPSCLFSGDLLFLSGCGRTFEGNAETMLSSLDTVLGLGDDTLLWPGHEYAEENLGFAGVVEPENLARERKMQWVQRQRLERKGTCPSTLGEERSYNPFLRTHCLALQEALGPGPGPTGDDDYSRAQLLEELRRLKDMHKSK
UniProt P16435: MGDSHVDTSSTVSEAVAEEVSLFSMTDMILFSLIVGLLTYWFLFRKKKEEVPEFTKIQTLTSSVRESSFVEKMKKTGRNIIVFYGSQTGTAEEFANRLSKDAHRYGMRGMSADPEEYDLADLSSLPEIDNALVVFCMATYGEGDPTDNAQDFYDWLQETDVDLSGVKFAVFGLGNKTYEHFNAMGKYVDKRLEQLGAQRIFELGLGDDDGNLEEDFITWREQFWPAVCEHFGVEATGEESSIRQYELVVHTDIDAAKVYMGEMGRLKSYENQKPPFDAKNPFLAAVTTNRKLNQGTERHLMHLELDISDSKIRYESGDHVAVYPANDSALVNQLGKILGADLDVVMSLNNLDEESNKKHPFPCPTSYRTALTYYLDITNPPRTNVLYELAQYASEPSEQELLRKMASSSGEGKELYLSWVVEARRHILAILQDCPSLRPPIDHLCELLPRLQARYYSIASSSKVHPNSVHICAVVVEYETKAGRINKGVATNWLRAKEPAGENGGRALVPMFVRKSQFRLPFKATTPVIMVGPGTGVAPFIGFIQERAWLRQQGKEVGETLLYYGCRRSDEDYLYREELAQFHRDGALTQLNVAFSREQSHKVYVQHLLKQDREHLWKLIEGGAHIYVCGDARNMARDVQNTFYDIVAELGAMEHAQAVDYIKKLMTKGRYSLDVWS
UniProt Q15126: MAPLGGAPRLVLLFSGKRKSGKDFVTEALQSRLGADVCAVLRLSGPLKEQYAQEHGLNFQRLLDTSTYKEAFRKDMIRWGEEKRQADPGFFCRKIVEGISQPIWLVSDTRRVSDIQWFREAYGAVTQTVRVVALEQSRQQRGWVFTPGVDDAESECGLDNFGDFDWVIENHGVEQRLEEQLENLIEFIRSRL
UniProt O15162: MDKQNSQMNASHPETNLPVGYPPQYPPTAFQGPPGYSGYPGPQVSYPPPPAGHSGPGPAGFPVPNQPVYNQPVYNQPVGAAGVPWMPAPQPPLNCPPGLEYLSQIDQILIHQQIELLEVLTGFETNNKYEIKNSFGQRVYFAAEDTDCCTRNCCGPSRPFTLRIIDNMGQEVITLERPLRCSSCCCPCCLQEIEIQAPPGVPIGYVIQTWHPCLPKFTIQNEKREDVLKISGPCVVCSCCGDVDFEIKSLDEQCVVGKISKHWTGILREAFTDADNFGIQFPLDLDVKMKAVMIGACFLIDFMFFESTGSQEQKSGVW
UniProt O94903: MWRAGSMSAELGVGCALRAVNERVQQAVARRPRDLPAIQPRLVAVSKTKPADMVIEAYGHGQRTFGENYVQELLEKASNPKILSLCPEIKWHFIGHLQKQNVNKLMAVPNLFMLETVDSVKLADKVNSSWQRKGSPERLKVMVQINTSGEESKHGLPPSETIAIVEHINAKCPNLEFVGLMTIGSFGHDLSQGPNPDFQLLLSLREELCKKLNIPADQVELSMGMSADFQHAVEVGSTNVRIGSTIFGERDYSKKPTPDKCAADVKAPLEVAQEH
UniProt Q9BUI4: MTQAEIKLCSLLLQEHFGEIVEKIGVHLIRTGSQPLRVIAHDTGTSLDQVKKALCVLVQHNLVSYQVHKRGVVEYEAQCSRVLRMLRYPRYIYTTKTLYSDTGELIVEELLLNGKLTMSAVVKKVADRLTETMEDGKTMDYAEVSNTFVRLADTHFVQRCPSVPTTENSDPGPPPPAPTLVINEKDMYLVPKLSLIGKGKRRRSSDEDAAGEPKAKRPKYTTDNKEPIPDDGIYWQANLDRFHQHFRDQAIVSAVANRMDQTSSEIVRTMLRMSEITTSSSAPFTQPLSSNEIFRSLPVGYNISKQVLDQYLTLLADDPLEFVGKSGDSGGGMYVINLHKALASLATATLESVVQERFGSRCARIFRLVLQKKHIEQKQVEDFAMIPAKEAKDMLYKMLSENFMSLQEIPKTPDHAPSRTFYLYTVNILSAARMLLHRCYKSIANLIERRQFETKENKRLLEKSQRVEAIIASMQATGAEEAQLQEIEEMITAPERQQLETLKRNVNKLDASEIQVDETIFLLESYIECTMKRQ
UniProt Q9NQ55: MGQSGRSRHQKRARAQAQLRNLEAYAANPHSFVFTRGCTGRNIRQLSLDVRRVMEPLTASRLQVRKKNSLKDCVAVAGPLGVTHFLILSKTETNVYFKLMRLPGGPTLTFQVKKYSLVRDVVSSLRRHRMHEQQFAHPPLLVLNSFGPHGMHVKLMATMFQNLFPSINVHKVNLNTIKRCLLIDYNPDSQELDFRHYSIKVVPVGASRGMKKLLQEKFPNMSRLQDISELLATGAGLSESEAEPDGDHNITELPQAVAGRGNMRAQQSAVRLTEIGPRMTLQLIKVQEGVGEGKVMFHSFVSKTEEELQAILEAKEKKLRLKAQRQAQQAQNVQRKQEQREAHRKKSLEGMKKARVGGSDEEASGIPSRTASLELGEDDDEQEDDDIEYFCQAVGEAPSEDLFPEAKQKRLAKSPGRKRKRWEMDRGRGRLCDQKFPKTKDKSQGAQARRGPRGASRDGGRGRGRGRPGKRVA

[1] = compound: CCCS(=O)(=O)Nc1ccc(F)c(C(=O)c2c[nH]c3ncc(Cl)cc23)c1F
In short: as §1

barasertib = compound: CCN(CCCOc1ccc2c(Nc3cc(CC(=O)Nc4cccc(F)c4)[nH]n3)ncnc2c1)CCOP(=O)(O)O [barasertib]
In short: as §1

[2] = compound: CC[C@@H]1C(=O)N(C)c2cnc(Nc3ccc(C(=O)NC4CCN(C)CC4)cc3OC)nc2N1C1CCCC1
In short: as §1

volasertib = compound: CC[C@@H]1C(=O)N(C)c2cnc(Nc3ccc(C(=O)N[C@H]4CC[C@H](N5CCN(CC6CC6)CC5)CC4)cc3OC)nc2N1C(C)C [volasertib]
In short: as §1

[3] = compound: CCn1c(C(=O)N(C2CC2)C2CC2)cc2c3c(ncn3C)c(Nc3cc(C)n(C)n3)nc21
In short: as §1

[4] = compound: CCn1cc(-c2ccnc3[nH]c(-c4cccc(CN(C)C)c4)cc23)c(-c2ccc(NC(=O)N(C)C)cc2)n1
In short: as §1

[5] = compound: CN1CCC(CNc2ccc3ncc(-c4cccc(OC(F)(F)F)c4)n3n2)CC1
In short: as §1

saracatinib = compound: CN1CCN(CCOc2cc(OC3CCOCC3)c3c(Nc4c(Cl)ccc5c4OCO5)ncnc3c2)CC1 [saracatinib]
In short: as §1

sotrastaurin = compound: CN1CCN(c2nc(C3=C(c4c[nH]c5ccccc45)C(=O)NC3=O)c3ccccc3n2)CC1 [sotrastaurin]
In short: as §1

alvocidib = compound: CN1CC[C@H](c2c(O)cc(O)c3c(=O)cc(-c4ccccc4Cl)oc23)[C@H](O)C1 [alvocidib]
In short: as §1

Tubastatin A = compound: CN1CCc2c(c3ccccc3n2Cc2ccc(C(=O)NO)cc2)C1 [Tubastatin A]
In short: as §1

[6] = compound: CNC(=O)C1=CC=CC=C1NC2=NC(=NC=C2Cl)NC3=C(C=C(C=C3)N4CCOCC4)OC
In short: as §1

defactinib = compound: CNC(=O)c1ccc(Nc2ncc(C(F)(F)F)c(NCc3nccnc3N(C)S(C)(=O)=O)n2)cc1 [defactinib]
In short: as §1

[7] = compound: CNc1nc(-c2ccc3c(N)n[nH]c3c2)cc(N2C[C@@H](C(=O)NC3CCCCC3)CC[C@H]2C)n1
In short: as §1

encorafenib = compound: COC(=O)N[C@@H](C)CNc1nccc(-c2cn(C(C)C)nc2-c2cc(Cl)cc(NS(C)(=O)=O)c2F)n1 [encorafenib]
In short: as §1

[8] = compound: COC(=O)[C@H](CCSC)NC(=O)C1=C(C=C(C=C1)NC[C@H](CS)N)C2=CC=CC=C2
In short: as §1

alisertib = compound: COc1cc(Nc2ncc3c(n2)-c2ccc(Cl)cc2C(c2c(F)cccc2OC)=NC3)ccc1C(=O)O [alisertib]
In short: as §1

[9] = compound: COc1cc2nc(-c3cc(F)ccc3O)nc(N[C@@H]3CNC[C@H]3C(C)(C)O)c2cc1OC
In short: as §1

gefitinib = compound: COc1cc2ncnc(Nc3ccc(F)c(Cl)c3)c2cc1OCCCN1CCOCC1 [gefitinib]
In short: as §1

Measured: log2 fold change

PNPLA2 (UniProt Q96AD5)
inactive: vemurafenib 0.052 | [1] 0.017 | barasertib 0.039 | [2] 0.009 | volasertib 0 | [3] 0.022 | [4] 0.001 | [5] 0.01 | saracatinib -0.059 | sotrastaurin -0.118 | alvocidib -0.01 | Tubastatin A -0.008 | [6] -0.043 | defactinib -0.021 | [7] 0.045 | encorafenib 0.007 | [8] 0.037 | alisertib -0.003 | [9] -0.023 | gefitinib -0.035

POLE2 (UniProt P56282)
inactive: vemurafenib 0.039 | [1] 0.021 | barasertib 0.034 | [2] -0.033 | volasertib -0.104 | [3] 0.043 | [4] -0.164 | [5] 0.085 | saracatinib 0.012 | sotrastaurin 0.094 | alvocidib 0 | Tubastatin A -0.033 | [6] 0.007 | defactinib 0.026 | [7] -0.015 | encorafenib 0.013 | [8] -0.038 | alisertib -0.042 | [9] 0.174 | gefitinib -0.066

POGK (UniProt Q9P215)
inactive: vemurafenib -0.035 | [1] 0.114 | barasertib 0.011 | [2] -0.005 | volasertib 0.033 | [3] -0.027 | [5] 0.034 | saracatinib 0.017 | sotrastaurin 0.013 | alvocidib -0.015 | Tubastatin A -0.011 | [6] 0.001 | defactinib 0.059 | [7] -0.02 | encorafenib -0.052 | [8] 0.028 | alisertib 0.071 | [9] -0.012 | gefitinib -0.013
active: [4] -0.397

PNO1 (UniProt Q9NRX1)
inactive: vemurafenib 0.009 | [1] 0.041 | barasertib 0.003 | [2] 0.009 | volasertib 0.006 | [3] -0.049 | [4] 0.025 | [5] -0.062 | saracatinib -0.007 | sotrastaurin -0.032 | alvocidib 0.019 | Tubastatin A -0.018 | [6] 0.022 | defactinib -0.019 | [7] 0.016 | encorafenib 0.007 | [8] 0.096 | alisertib 0.015 | [9] 0.004 | gefitinib -0.01

POLRMT (UniProt O00411)
inactive: vemurafenib 0.032 | [1] 0.018 | barasertib 0.09 | [2] -0.081 | volasertib -0.022 | [3] 0.019 | [4] 0.041 | [5] -0.062 | saracatinib 0.032 | sotrastaurin 0.052 | alvocidib 0.025 | Tubastatin A -0.13 | [6] 0.002 | defactinib -0.045 | [7] -0.037 | encorafenib 0.069 | [8] 0.203 | alisertib -0.054 | [9] 0 | gefitinib -0.038

POLR3H (UniProt Q9Y535)
inactive: vemurafenib -0.023 | [1] 0.049 | barasertib 0.075 | [2] 0.05 | volasertib -0.008 | [3] -0.042 | [4] -0.277 | [5] 0.181 | saracatinib -0.032 | sotrastaurin -0.086 | alvocidib -0.084 | Tubastatin A -0.051 | [6] -0.093 | defactinib -0.052 | [7] -0.066 | encorafenib -0.013 | [8] -0.027 | alisertib -0.244 | [9] 0.038 | gefitinib -0.117

POLDIP2 (UniProt Q9Y2S7)
inactive: vemurafenib -0.051 | [1] 0.006 | barasertib 0.015 | [2] -0.031 | volasertib 0.02 | [3] 0.056 | [4] -0.008 | [5] 0.073 | saracatinib -0.022 | sotrastaurin -0.011 | alvocidib 0.018 | Tubastatin A -0.044 | [6] -0.055 | defactinib -0.015 | [7] -0.05 | encorafenib 0.009 | [8] -0.06 | alisertib -0.056 | [9] -0.007 | gefitinib 0.012

POMP (UniProt Q9Y244)
inactive: vemurafenib -0.022 | [1] 0.001 | barasertib -0.034 | [2] 0.039 | volasertib -0.007 | [3] -0.028 | [4] 0.065 | [5] -0.061 | saracatinib 0.056 | sotrastaurin -0.064 | alvocidib 0.072 | Tubastatin A -0.061 | [6] 0.035 | defactinib 0.024 | [7] -0.03 | encorafenib 0.074 | [8] -0.002 | alisertib -0.013 | [9] -0.033 | gefitinib -0.093

PNKD isoform 2 (UniProt Q8N490)
inactive: vemurafenib 0.025 | [1] -0.004 | barasertib -0.008 | [2] 0.041 | volasertib -0.059 | [3] 0 | [4] 0.041 | [5] -0.042 | saracatinib -0.032 | sotrastaurin -0.038 | alvocidib 0.02 | Tubastatin A -0.021 | [6] 0.031 | defactinib 0.002 | [7] -0.022 | encorafenib 0 | [8] 0.044 | alisertib -0.053 | [9] 0.039 | gefitinib 0.057

POR (UniProt P16435)
inactive: vemurafenib -0.001 | [1] 0.013 | barasertib 0.023 | [2] 0.025 | volasertib 0.008 | [3] -0.017 | [4] -0.025 | [5] 0.002 | saracatinib 0.016 | sotrastaurin 0.007 | alvocidib -0.031 | Tubastatin A 0.071 | [6] -0.01 | defactinib 0.013 | [7] 0.015 | encorafenib 0.017 | [8] -0.011 | alisertib 0.017 | [9] 0.031 | gefitinib -0.006

PMVK (UniProt Q15126)
inactive: vemurafenib 0.032 | [1] 0.013 | barasertib 0.035 | [2] -0.163 | volasertib 0.016 | [3] -0.004 | [4] -0.002 | [5] 0.03 | saracatinib 0.01 | sotrastaurin 0.001 | alvocidib -0.03 | Tubastatin A -0.087 | [6] -0.003 | defactinib -0.051 | [7] -0.108 | encorafenib 0.001 | [8] -0.07 | alisertib 0.018 | [9] -0.019 | gefitinib -0.003

PLSCR1 (UniProt O15162)
inactive: vemurafenib 0.032 | [1] -0.004 | barasertib 0.003 | [2] 0.013 | volasertib 0.046 | [3] 0.027 | [4] -0.094 | [5] 0.198 | saracatinib 0.051 | sotrastaurin 0.002 | alvocidib -0.036 | Tubastatin A -0.032 | [6] -0.012 | defactinib -0.009 | [7] -0.021 | encorafenib 0.055 | [8] -0.194 | alisertib 0.04 | [9] 0.059 | gefitinib -0.005

PLPBP (UniProt O94903)
inactive: vemurafenib 0.014 | [1] 0.009 | barasertib -0.013 | [2] -0.019 | volasertib -0.006 | [3] 0 | [4] -0.022 | [5] 0.004 | saracatinib 0.011 | sotrastaurin -0.016 | alvocidib -0.049 | Tubastatin A -0.015 | [6] 0.077 | defactinib 0.041 | [7] 0.01 | encorafenib 0.005 | [8] -0.007 | alisertib 0.011 | [9] -0.041 | gefitinib -0.008

POLR3C (UniProt Q9BUI4)
inactive: vemurafenib -0.026 | [1] 0.007 | barasertib 0.019 | [2] 0.026 | volasertib 0 | [3] -0.02 | [4] -0.024 | [5] 0.026 | saracatinib -0.001 | sotrastaurin -0.009 | alvocidib 0.014 | Tubastatin A 0.017 | [6] 0.015 | defactinib 0.015 | [7] 0.011 | encorafenib 0.012 | [8] 0.034 | alisertib 0.025 | [9] 0.007 | gefitinib 0.016

POLR2C (UniProt P19387)
inactive: vemurafenib 0.001 | [1] -0.007 | barasertib 0.022 | [2] -0.027 | volasertib -0.039 | [3] 0.009 | [4] -0.048 | [5] 0.062 | saracatinib -0.008 | sotrastaurin -0.01 | alvocidib -0.032 | Tubastatin A -0.086 | [6] 0.021 | defactinib 0.015 | [7] -0.031 | encorafenib 0.049 | [8] 0.066 | alisertib -0.061 | [9] 0.013 | gefitinib 0.003

PPAN isoform 3 (UniProt Q9NQ55)
inactive: vemurafenib -0.028 | [1] 0.022 | barasertib -0.025 | [2] 0.027 | volasertib -0.004 | [3] 0.015 | [4] -0.113 | [5] 0.018 | saracatinib 0.016 | sotrastaurin 0.001 | alvocidib -0.019 | Tubastatin A -0.034 | [6] 0.04 | defactinib 0.015 | [7] 0.024 | encorafenib -0.005 | [8] 0.091 | alisertib 0.016 | [9] -0.021 | gefitinib -0.016

Taken from the results shown (2 entries):
POLRMT (UniProt O00411)
inactive: vemurafenib 0.032 | [1] 0.018 | barasertib 0.09 | [2] -0.081 | volasertib -0.022 | [3] 0.019 | [4] 0.041 | [5] -0.062 | saracatinib 0.032 | sotrastaurin 0.052 | alvocidib 0.025 | Tubastatin A -0.13 | [6] 0.002 | defactinib -0.045 | [7] -0.037 | encorafenib 0.069 | [8] 0.203 | alisertib -0.054 | [9] 0 | gefitinib -0.038

POLR3H (UniProt Q9Y535)
inactive: vemurafenib -0.023 | [1] 0.049 | barasertib 0.075 | [2] 0.05 | volasertib -0.008 | [3] -0.042 | [4] -0.277 | [5] 0.181 | saracatinib -0.032 | sotrastaurin -0.086 | alvocidib -0.084 | Tubastatin A -0.051 | [6] -0.093 | defactinib -0.052 | [7] -0.066 | encorafenib -0.013 | [8] -0.027 | alisertib -0.244 | [9] 0.038 | gefitinib -0.117

Reference: the supplement of paper PMC10849652
